The other results are listed elsewhere or left out. These are further read-outs of the screen, such as a control signal, another cell line or another target. No call is given for them. The list favours compounds with an active or inconclusive main result. Words in brackets tell the shape of the fitted curve; partial curves, single points and poor fits give uncertain potencies.

The nature of this assay: qHTS Assay to Find Inhibitors of Chronic Active B-Cell Receptor Signaling. The note with it: ABC-DLBCL IkBa-CBG/CBR reporter, luminescence ratio (green luciferase fused to IkBa over red control in TMD8 lymphoma cells), 4 h. A digest of the protocol: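 TMD8 human ABC-DLBCL cells with doxycycline-inducible IκBα–green luciferase fusion and unfused red luciferase, in 0.5% FBS medium; compounds up to 46 uM, 4 h at 37C. Green/red luminescence ratio, filter-overlap corrected, fitted to concentration-response curves.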
For orientation: In qHTS, concentration-response curves come from the screen itself.

Where [1] appears, read: measured here: CBR red luminescence, cell number.
Setting [2] is: measured here: IkBa-CBG green luminescence.

One may read the AC50 as the midpoint of the concentration-response curve, whichever way the signal moves. For the compound `Cc1cccc(Nc2ncc3c(n2)CC(C)CC3=O)c1` (stereo unspecified), under setting [1], the concentration at half-maximal activity (AC50) is 25.9 µM [falling, partial curve, poor fit].

For `O=C(NC1CCN(Cc2ccccc2)CC1)c1ccc(Cn2c(=S)[nH]c3ccc(N4CCOCC4)cc3c2=O)cc1`, the half-maximal activity concentration (AC50) under setting [1] is 7.08 µM [falling, partial curve].

In the case of `Cc1ccc(C)c(N2C(=O)CC(N3CCN(Cc4ccc5c(c4)OCO5)CC3)C2=O)c1` (stereo unspecified), the AC50 under setting [1] is 2.51 µM [falling, full curve, poor fit].

Regarding `CCOC(=O)N/N=C\c1ccc(C)s1`, the AC50 under setting [1] was 23.1 µM [falling, partial curve].

Take `O=C(Nc1nc(-c2cccnc2)cs1)c1ccccc1[N+](=O)[O-]`: the concentration at half-maximal activity (AC50) under setting [1] is 20 µM [falling, single point].

As for `CSc1ncccc1C(=O)NCCc1ccc(Cl)cc1`, the AC50 under setting [1] was 3.55 µM [falling, full curve, poor fit].

As to `COc1cccc(/C(C)=N/N=C(\C)c2cccc(OC)c2)c1`, the AC50 under setting [1] was 4.47 µM [rising, full curve, poor fit].

As for `O=C(CCS(=O)(=O)c1ccccc1)Nc1ncc([N+](=O)[O-])s1`, under setting [1], the half-maximal activity concentration (AC50) is 35.5 µM [falling, single point].

On to `CC(=O)Oc1ccc(-c2cccc(C(=O)OCC(=O)N(C)c3ccccc3)c2)cc1`, for which, under setting [1], the AC50 is 18.4 µM [falling, single point].

On to `O=C(Nc1c(C(=O)O)oc2ccccc12)c1ccc(C(F)(F)F)cc1`, for which the AC50 under setting [1] was 12.6 µM [falling, single point].

As to `CCN(c1ccccc1)S(=O)(=O)c1ccc(C(=O)N(CCCN(C)C)c2nc3cc4c(cc3s2)OCO4)cc1`, under setting [1], the half-maximal activity concentration (AC50) is 31.6 µM [falling, single point].

In the case of `COc1cccc(NC(=O)CN2C(=O)CSc3nc(C)cc(C)c32)c1`, the half-maximal activity concentration (AC50) under setting [1] is 0.1 µM [falling, full curve, poor fit].

Turning to `Cc1ccc(NC(=O)c2ccc3nc[nH]c3c2)cc1C`, the concentration at half-maximal activity (AC50) under setting [1] is 29.1 µM [falling, single point].

`NS(=O)(=O)c1ccc(CNC(=O)C(c2ccccc2)c2ccccc2)cc1`: the AC50 under setting [1] was 15.8 µM [falling, partial curve, poor fit].

Take `CCC(=O)Nc1nc(-c2ccccc2)nc(SC)c1C(C)=O`: the AC50 under setting [1] was 2.82 µM [falling, partial curve].

For `O=[N+]([O-])c1ccc(N2CCN(C(=S)Nc3cccc(F)c3)CC2)cc1`, the half-maximal activity concentration (AC50) under setting [1] is 35.5 µM [falling, partial curve, poor fit].

For `CCCCC[C@H](O)/C=C/C1=C(CCCCCCC(=O)O)C(=O)CC1`, the AC50 was 0.112 µM [rising, full curve, poor fit] under setting [1] and 8.2 µM [falling, partial curve] under setting [2].

In the case of `O=C(NCCc1ccc2c(c1)OCCO2)c1ccc(F)cc1`, the AC50 under setting [1] is 7.31 µM [falling, partial curve].

For the compound `O=C(c1cnn(C(=O)c2ccc(O)cc2)c1)c1ccccc1O`, under setting [1], the AC50 is 0.398 µM [falling, full curve, poor fit].

Regarding `CS(=O)(=O)c1ccc2nc(NC(=O)Nc3ccccc3F)sc2c1`, the AC50 under setting [1] is 0.501 µM [rising, partial curve, poor fit].

With `COc1cccc(-n2c(C)c3c(OC)cccc(=O)c3c2C)c1`, the half-maximal activity concentration (AC50) under setting [1] is 3.98 µM [rising, full curve, poor fit].

Turning to `O=C(NCc1cccnc1)/C(=C\c1ccc(-c2cccc(Cl)c2)o1)S(=O)(=O)c1ccccc1`, the concentration at half-maximal activity (AC50) reads like this: under setting [1], 25.9 µM [falling, single point]; under setting [2], 25.9 µM [rising, partial curve, poor fit].

On to `CCOC(=O)/C(C#N)=C1\Nc2ccccc2N=C1N(CC(C)C)CC(C)C`, for which the half-maximal activity concentration (AC50) under setting [1] was 13 µM [falling, partial curve, poor fit].

On to `COC(=O)c1c(C)[nH]c(C(=O)C(C)OC(=O)c2c(C)noc2C)c1C` (stereo unspecified), for which, under setting [1], the AC50 is 2.91 µM [rising, partial curve, poor fit].

Turning to `O=C(Nc1ccc(Nc2ccccc2)cc1)Nc1ccccc1Cl`, the concentration at half-maximal activity (AC50) under setting [1] was 8.91 µM [falling, partial curve].

With `COc1ccccc1OCc1cc(-c2ccccc2)no1`, the AC50 under setting [1] was 11.2 µM [falling, partial curve].

With `CCOC(=O)C(C(=O)OCC)C(Nc1ccc(Br)cc1)c1ccccc1` (stereo unspecified), the AC50 under setting [1] is 0.562 µM [falling, full curve, poor fit].

Turning to `CC(=O)N(CCCCN1C(=O)c2ccccc2C1=O)c1ccc(C)cc1`, the half-maximal activity concentration (AC50) under setting [1] is 1.3 µM [rising, partial curve].

For the compound `Cc1ccc(C=Nc2cccnc2N)cc1`, the AC50 under setting [1] is 11.6 µM [falling, single point].

In the case of `CCOC(=O)CC(=O)Nc1nc2ccccc2s1`, the AC50 under setting [1] was 17.8 µM [falling, single point].

Regarding `CC(=O)c1ccc(N(CC(=O)NC2CCS(=O)(=O)C2)S(=O)(=O)c2ccc(C)cc2)cc1` (stereo unspecified), the AC50 under setting [1] is 14.6 µM [rising, partial curve, poor fit].

With `Cc1cc(NC(=O)c2cccc(Cl)c2)n[nH]1`, under setting [1], the AC50 was 18.4 µM [falling, single point].

Regarding `CCCc1c(-c2ccc(O)cc2)nn(-c2ccc(O)cc2)c1-c1ccc(O)cc1`, under setting [1], the AC50 is 12.6 µM [falling, partial curve].

Take `COc1ccc(C(=O)COC(=O)c2ccco2)cc1`: the AC50 under setting [1] is 3.98 µM [rising, partial curve, poor fit].

As to `COc1ccccc1NS(=O)(=O)c1cc(C(=O)N2CCCC2)ccc1F`, under setting [1], the half-maximal activity concentration (AC50) was 0.116 µM [falling, full curve, poor fit].

Consider `COc1ccccc1OCC(=O)Nc1ccccc1C(=O)NCc1ccco1`, for which the concentration at half-maximal activity (AC50) under setting [1] is 0.517 µM [falling, full curve, poor fit].

On to `CC(C)(C)C1CCC(=NNC(=O)c2ccco2)CC1` (stereo unspecified), for which the half-maximal activity concentration (AC50) under setting [1] is 15.8 µM [falling, partial curve, poor fit].

As for `COc1cccc(NC(=O)Cc2ccc(C)cc2)c1`, under setting [1], the AC50 was 32.6 µM [rising, single point].

On to `O=C(COc1ccccc1Cl)N(Cc1cccs1)C1CCS(=O)(=O)C1` (stereo unspecified), for which the AC50 under setting [1] is 2.82 µM [falling, full curve, poor fit].

As to `Cc1onc(-c2ccccc2)c1C(=O)Nc1cccnc1`, under setting [1], the concentration at half-maximal activity (AC50) was 10 µM [falling, partial curve, poor fit].

Consider `Cc1cc(NC(=O)CSc2nnc(C3CC3)n2-c2ccccc2)no1`, for which, under setting [1], the AC50 is 10 µM [falling, partial curve, poor fit].

Consider `COCC(=O)OC/C(O)=C(\C#N)c1nc2ccccc2[nH]1`, for which, under setting [1], the half-maximal activity concentration (AC50) was 35.5 µM [rising, single point].

Take `Oc1c(Cl)cc(Cl)c(Cl)c1Cc1c(O)c(Cl)cc(Cl)c1Cl`: the AC50 is 14.1 µM [falling, single point] under setting [1] and 1 µM [rising, full curve, poor fit] under setting [2].

For `O=C(CSc1nnc(CCCN2C(=O)c3cccc4cccc(c34)C2=O)n1-c1ccccc1)NCCCO`, the concentration at half-maximal activity (AC50) under setting [1] was 2.91 µM [rising, partial curve].

In the case of `Cc1nc2cc(C(=O)OCC(=O)NC(C)C(C)C)ccc2n1-c1ccccc1` (stereo unspecified), under setting [1], the AC50 is 2.59 µM [rising, partial curve, poor fit].

Regarding `COc1cc(OC)c(OC)cc1/C=N/NC(=S)NCCN1CCOCC1`, the AC50 under setting [2] is 11.2 µM [falling, partial curve, poor fit].

In the case of `CC(C)(CC(=O)O)CC(=O)N1CCN(c2nc3cc(Cl)ccc3s2)CC1`, the AC50 under setting [1] is 11.2 µM [falling, partial curve].

For `N#C/C(=C\c1cccc([N+](=O)[O-])c1)C(=O)NCc1ccc(Cl)cc1`, the concentration at half-maximal activity (AC50) under setting [1] was 20 µM [falling, single point].

As to `C[C@@H](C(=O)NCc1ccccn1)[C@H]1C[C@]1(C)[C@H](NC(=O)OCc1ccccc1)c1ccccc1`, the half-maximal activity concentration (AC50) under setting [1] is 18.4 µM [falling, single point].

`COCC1CCN(Cc2c(C(=O)N3CCN(C4CCCCC4)CC3)nc3ccccn23)C1` (stereo unspecified): the AC50 under setting [1] is 5.62 µM [rising, partial curve].

`CCOC(=O)c1c(NC(=O)C2COc3ccccc3O2)sc2c1CC(C)(C)NC2(C)C` (stereo unspecified): the AC50 under setting [1] is 14.6 µM [falling, single point].

With `CCOC(=O)C1=C(C)OC2(O)c3ccccc3C(=O)C12O` (stereo unspecified), the concentration at half-maximal activity (AC50) under setting [1] was 17.8 µM [rising, single point].

In the case of `COc1ccc2c3c([nH]c2c1)C(C)N(C(C)=O)CC3` (stereo unspecified), under setting [1], the AC50 is 10 µM [rising, partial curve, poor fit].

For `CCOc1ccc(NC(=O)/C=C\C(=O)N(c2ccc(C(C)C)cc2)C(C(=O)NCc2ccco2)c2ccc(F)cc2)cc1` (stereo unspecified), the concentration at half-maximal activity (AC50) under setting [1] is 35.5 µM [falling, single point].

Turning to `CC(Oc1cccc(Br)c1)C(=O)NNC(=O)c1ccccn1` (stereo unspecified), under setting [1], the AC50 was 14.6 µM [rising, partial curve].

Regarding `Cc1nn(-c2ccccc2)c(N)c1C(O)(CSc1nccn1C)C(F)(F)F` (stereo unspecified), the AC50 under setting [1] was 1.16 µM [falling, full curve, poor fit].

For the compound `CC(=O)NC12CC3CC(C1)CC(C(=O)Nc1c(C)n(C)n(-c4ccccc4)c1=O)(C3)C2`, the AC50 under setting [1] was 35.5 µM [rising, single point].

Turning to `C=CCc1c(C)nc(C)nc1N/N=C/c1ccc(F)cc1`, the AC50 under setting [1] was 29.1 µM [rising, single point].

On to `COc1ccccc1NC1=C(C)C(=O)CC1`, for which the concentration at half-maximal activity (AC50) is 25.9 µM [rising, partial curve, poor fit] under setting [1] and 23.1 µM [falling, partial curve, poor fit] under setting [2].

On to `O=C(/C=C/c1ccccc1Cl)c1ccc[nH]1`, for which the half-maximal activity concentration (AC50) under setting [1] was 18.4 µM [falling, single point].

Regarding `COc1ccc(CNCCC(c2ccccc2)c2ccc3c(c2)OCO3)cc1` (stereo unspecified), under setting [1], the AC50 is 1.12 µM [falling, full curve, poor fit].

On to `COc1ccc(-c2oc(=O)c3cc(OC)c(OC)cc3c2-c2ccc3c(c2)OCO3)cc1`, for which the AC50 under setting [1] is 5.17 µM [rising, partial curve, poor fit].
